These are yes or no findings as the source states them, for the method shown. Binding seen in cells or lysates may run through a third protein. A yes stands for co-enrichment or nearness to the bait. Other partners may have been found.
What was measured:
[1] = molecular target: Poly(ADP-ribose) polymerase 1 (PARP-1) (human (endogenous in SK-N-SH or HeLa)) (UniProt P09874); test: affinity purification with mass spectrometry; PARP-1 immunoprecipitated from human cell lysate (SK-N-SH or HeLa; phosphate or Tris lysis buffer pH 8.0, 150 mM NaCl, 1% NP-40) with monoclonal F1-23 on protein G magnetic beads, 2 h at 4°C; control normal mouse IgG; SDS-PAGE, in-gel trypsin digestion, LC-MS/MS; each hit in at least two pull-downs
FLAG-PARG = FLAG-PARG (UniProt Q86W56); test: affinity purification with mass spectrometry; transiently overexpressed FLAG-PARP-2 or FLAG-PARG immunoprecipitated from human cell lysate (phosphate or Tris lysis buffer pH 8.0, 150 mM NaCl, 1% NP-40) with anti-FLAG M2 on protein G magnetic beads, 2 h at 4°C; control normal mouse IgG; SDS-PAGE, in-gel trypsin digestion, LC-MS/MS; each hit in at least two pull-downs
FLAG-PARP-2 = FLAG-PARP-2 (UniProt Q9UGN5); test: as above

Amino acid sequences for entries named in this document (tags omitted).
UniProt P09874: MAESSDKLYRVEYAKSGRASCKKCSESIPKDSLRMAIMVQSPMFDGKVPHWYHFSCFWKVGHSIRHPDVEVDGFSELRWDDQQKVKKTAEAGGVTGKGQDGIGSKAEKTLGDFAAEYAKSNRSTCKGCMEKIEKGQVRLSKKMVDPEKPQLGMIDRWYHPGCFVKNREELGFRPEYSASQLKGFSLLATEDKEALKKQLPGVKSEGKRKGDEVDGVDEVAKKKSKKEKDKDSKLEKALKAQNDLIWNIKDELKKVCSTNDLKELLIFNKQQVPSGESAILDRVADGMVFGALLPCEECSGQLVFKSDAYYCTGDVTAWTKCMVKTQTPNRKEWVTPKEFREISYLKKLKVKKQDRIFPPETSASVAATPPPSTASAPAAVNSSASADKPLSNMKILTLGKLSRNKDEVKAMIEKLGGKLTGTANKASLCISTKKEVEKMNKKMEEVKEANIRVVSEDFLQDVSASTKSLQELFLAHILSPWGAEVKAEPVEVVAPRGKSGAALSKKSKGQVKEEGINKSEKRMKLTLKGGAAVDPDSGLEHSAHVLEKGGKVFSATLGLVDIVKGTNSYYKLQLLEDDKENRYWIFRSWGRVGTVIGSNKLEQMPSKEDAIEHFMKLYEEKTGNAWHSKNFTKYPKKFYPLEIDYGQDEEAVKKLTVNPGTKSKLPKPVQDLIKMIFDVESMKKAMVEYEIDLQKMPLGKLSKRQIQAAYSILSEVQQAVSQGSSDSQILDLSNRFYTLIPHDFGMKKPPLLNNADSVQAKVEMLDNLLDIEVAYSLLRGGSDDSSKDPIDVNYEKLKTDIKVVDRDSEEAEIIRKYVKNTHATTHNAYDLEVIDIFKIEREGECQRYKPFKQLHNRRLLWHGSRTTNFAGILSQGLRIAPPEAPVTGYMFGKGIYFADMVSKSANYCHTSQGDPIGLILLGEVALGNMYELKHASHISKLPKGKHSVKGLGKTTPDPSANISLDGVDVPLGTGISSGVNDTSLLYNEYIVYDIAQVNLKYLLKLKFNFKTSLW
UniProt Q86W56: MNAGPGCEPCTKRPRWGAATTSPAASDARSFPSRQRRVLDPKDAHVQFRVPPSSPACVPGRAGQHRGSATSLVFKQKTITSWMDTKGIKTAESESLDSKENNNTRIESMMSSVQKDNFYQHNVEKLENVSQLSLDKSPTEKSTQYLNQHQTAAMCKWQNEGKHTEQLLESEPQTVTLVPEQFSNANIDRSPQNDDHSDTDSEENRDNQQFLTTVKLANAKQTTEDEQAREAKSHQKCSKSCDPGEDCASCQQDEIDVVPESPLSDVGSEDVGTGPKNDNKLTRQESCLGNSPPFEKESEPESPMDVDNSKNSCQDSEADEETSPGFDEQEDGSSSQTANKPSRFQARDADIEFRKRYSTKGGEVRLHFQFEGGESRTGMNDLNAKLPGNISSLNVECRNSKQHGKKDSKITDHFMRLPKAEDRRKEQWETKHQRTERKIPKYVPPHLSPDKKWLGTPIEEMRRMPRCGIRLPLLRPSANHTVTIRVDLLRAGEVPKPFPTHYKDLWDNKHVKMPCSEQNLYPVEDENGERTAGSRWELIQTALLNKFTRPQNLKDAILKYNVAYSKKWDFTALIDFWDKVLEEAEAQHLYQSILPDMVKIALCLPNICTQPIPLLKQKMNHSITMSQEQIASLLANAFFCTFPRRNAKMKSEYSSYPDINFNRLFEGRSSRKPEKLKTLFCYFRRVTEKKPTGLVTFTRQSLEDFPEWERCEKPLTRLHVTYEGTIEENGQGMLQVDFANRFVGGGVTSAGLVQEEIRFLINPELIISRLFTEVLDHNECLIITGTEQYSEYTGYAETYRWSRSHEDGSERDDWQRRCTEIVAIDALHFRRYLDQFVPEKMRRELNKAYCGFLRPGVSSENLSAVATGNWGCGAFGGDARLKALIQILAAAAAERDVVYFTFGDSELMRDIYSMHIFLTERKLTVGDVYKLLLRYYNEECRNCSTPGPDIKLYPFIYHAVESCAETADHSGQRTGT
UniProt Q9UGN5: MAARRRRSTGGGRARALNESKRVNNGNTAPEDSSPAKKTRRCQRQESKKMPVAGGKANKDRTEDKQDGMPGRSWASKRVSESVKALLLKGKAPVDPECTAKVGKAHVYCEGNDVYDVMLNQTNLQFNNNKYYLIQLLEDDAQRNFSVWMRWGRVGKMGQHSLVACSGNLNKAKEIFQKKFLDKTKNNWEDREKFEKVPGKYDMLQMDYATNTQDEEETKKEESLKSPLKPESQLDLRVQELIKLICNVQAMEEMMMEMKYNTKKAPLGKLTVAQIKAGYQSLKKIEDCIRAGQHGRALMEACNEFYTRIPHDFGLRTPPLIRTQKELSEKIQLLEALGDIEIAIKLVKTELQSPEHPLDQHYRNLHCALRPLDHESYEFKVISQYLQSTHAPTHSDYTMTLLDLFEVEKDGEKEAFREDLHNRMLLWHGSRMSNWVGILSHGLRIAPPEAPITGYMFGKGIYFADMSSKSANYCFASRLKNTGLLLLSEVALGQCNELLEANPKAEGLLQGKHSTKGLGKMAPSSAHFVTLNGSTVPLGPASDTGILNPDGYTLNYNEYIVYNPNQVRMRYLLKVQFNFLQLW

Measured: binding

B1: hnRNP M (protein, UniProt P52272 1-730)
chain: MAAGVEAAAEVAATEIKMEEESGAPGVPSGNGAPGPKGEGERPAQNEKRKEKNIKRGGNRFEPYANPTKRYRAFITNIPFDVKWQSLKDLVKEKVGEVTYVELLMDAEGKSRGCAVVEFKMEESMKKAAEVLNKHSLSGRPLKVKEDPDGEHARRAMQKVMATTGGMGMGPGGPGMITIPPSILNNPNIPNEIIHALQAGRLGSTVFVANLDYKVGWKKLKEVFSMAGVVVRADILEDKDGKSRGIGTVTFEQSIEAVQAISMFNGQLLFDRPMHVKMDERALPKGDFFPPERPQQLPHGLGGIGMGLGPGGQPIDANHLNKGIGMGNIGPAGMGMEGIGFGINKMGGMEGPFGGGMENMGRFGSGMNMGRINEILSNALKRGEIIAKQGGGGGGGSVPGIERMGPGIDRLGGAGMERMGAGLGHGMDRVGSEIERMGLVMDRMGSVERMGSGIERMGPLGLDHMASSIERMGQTMERIGSGVERMGAGMGFGLERMAAPIDRVGQTIERMGSGVERMGPAIERMGLSMERMVPAGMGAGLERMGPVMDRMATGLERMGANNLERMGLERMGANSLERMGLERMGANSLERMGPAMGPALGAGIERMGLAMGGGGGASFDRAIEMERGNFGGSFAGSFGGAGGHAPGVARKACQIFVRNLPFDFTWKMLKDKFNECGHVLYADIKMENGKSKGCGVVKFESPEVAERACRMMNGMKLSGREIDVRIDRNA
binds: [1] | FLAG-PARG | FLAG-PARP-2

Reference: paper PMC2861645
